The supplement of paper PMC12067093, “Discovery and optimisation of a covalent ligand for TRIM25 and its application to targeted protein ubiquitination” (Chemical Science, 2025)
This is one part of the list.

What follows are targets tested with Cc1cc(ccc1-c1ccccc1)C(=O)N1CCCN(CC1)C(=O)CCl [compound 10] (assay: probe-labelled cysteine peptide fold change vs DMSO (competition) (log2 fold change); higher = less target engagement (more negative = stronger competition)). Conditions: 50 µM; THP-1; incubation time: 4 h.
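Note: competitive profiling in live THP-1 cells: cysteine peptides tagged with an iodoacetamide desthiobiotin (IA-DTB) probe, intensity after compound treatment relative to DMSO-treated cells.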

| Target | probe-labelled cysteine peptide fold change |
| --- | --- |
| GLOD4_Q9HC38-2_41_VLRHEEFEEGCK (UniProt Q9HC38) | -1.19 |
| GNB2_P62879_294_LLLAGYDDFNCNIWDAMK (UniProt P62879) | 0.0696 |
| GNPDA1_P46926_48_YFTLGLPTGSTPLGCYK (UniProt P46926) | 0.228 |
| GPR108_Q9NPR9_104_DFQDCPLQK (UniProt Q9NPR9) | -0.0357 |
| GNL3L_Q9NVN8_490_IGDLTGYCTNPNR (UniProt Q9NVN8) | 0.161 |
| GLA_P06280_94_DAGYEYLCIDDCWMAPQR (UniProt P06280) | 0.124 |
| GMIP_Q9P107_521_ECEAFMVSGTECEECFLTCHK (UniProt Q9P107) | 0.297 |
| GPATCH4_Q5T3I0_152_ILTDEMLLQACEGR (UniProt Q5T3I0) | 0.0804 |
| GORASP2_Q9H8Y8_173_LYVYNTDTDNCR (UniProt Q9H8Y8) | 0.167 |
| GNB1_P62873_25_KACADATLSQITNNIDPVGR (UniProt P62873) | -0.659 |
| GMPR2_Q9P2T1_348_VTQQVNPIFSEAC (UniProt Q9P2T1) | -0.396 |
| GPT2_Q8TD30_265_VLCIINPGNPTGQVQSR (UniProt Q8TD30) | -0.0557 |
| GNL2_Q13823_362_IFLIDCPGVVYPSEDSETDIVLK (UniProt Q13823) | 0.122 |
| GMPR2_Q9P2T1_222+224_GHIISDGGCSCPGDVAK (UniProt Q9P2T1) | -0.49 |
| GNL3_Q9BVP2_156_KVIEASDVVLEVLDARDPLGCR (UniProt Q9BVP2) | -0.644 |
| GNPTG_Q9UJJ9_142_VELACGK (UniProt Q9UJJ9) | 0.0807 |

In another format: entries from further up
Target,probe-labelled cysteine peptide fold change
GMPR2_Q9P2T1_348_VTQQVNPIFSEAC (UniProt Q9P2T1),-0.396
GNPTG_Q9UJJ9_142_VELACGK (UniProt Q9UJJ9),0.0807
